Reference: PMC7412561 (Materials, 2020)

Test: general procedure: Fmoc solid-phase peptide synthesis; 2-chlorotrityl chloride resin, 1.0 mmol/g; DMT/NMM/TosO-, NMM
Conditions: whole synthesis, RP-HPLC, scale of the general procedure 1.0 mmol

## H-G[Hyp]PA[Hyp]P-OH
  purity (crude or final not stated): 98.95%

Non-standard residues stand in square brackets, D forms with d. Hyp = O=C(O)[C@@H]1C[C@@H](O)CN1
